Values from PubChem BioAssay AID504764 (Drosophila RNAi Screening Center, 2011)

Test: 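Genome-wide screen for regulators of Notch-driven gene expression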 (primary screen)
Cell system: Drosophila Kc167 cells
Reagents: long dsRNA against Drosophila genes
Time to read-out: about 5 days (4 days dsRNA, then 24 h after transfection)
Conditions: transfection of constitutively active membrane-tethered Notch lacking the extracellular domain, read 24 h later
Read-out: 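Firefly luciferase from an E(spl)m3 reporter with active Notch, plus control-promoter and uninduced reporter wells for normalisation; unnormalised counts, duplicate wells a and b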
Scale: induced reporter light, run 1, well a and induced reporter light, run 1, well b: higher = more light from the Notch target reporter with active Notch; control promoter light, run 1, well a and control promoter light, run 1, well b: higher = more light from the viral control promoter (cell number, transfection, viability); uninduced reporter light, run 1, well a: higher = more light from the Notch target reporter without active Notch
Hit rule: 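Wells with low control signal or poorly matching duplicates excluded; duplicates averaged; per source plate, z beyond ±2 for induced/control log2 ratio or beyond ±1.8 for induced/uninduced marks a hit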
Calls: active = modifier hit (raised or lowered Notch signal); inactive = not a hit
In all, the deposit lists about 22,000 reagents; this is an unselected part of those that have a named target and a result. Over the whole deposit, 403 (1.9%) got an active call. 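Unnormalised raw counts per well; ratio z-scores behind the hit calls and whether each hit raises or lowers signal are not deposited.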 Reagent sequences are not shown. Not stated in the record: the amount of reagent.

For CG43861 [DRSC02308] the deposit lists induced reporter light, run 1, well a = 63010; induced reporter light, run 1, well b = 74895; control promoter light, run 1, well a = 55530; control promoter light, run 1, well b = 38615; uninduced reporter light, run 1, well a = 3050; inactive.
CG15649 [DRSC04240] showed induced reporter light, run 1, well a = 40550; induced reporter light, run 1, well b = 40845; control promoter light, run 1, well a = 34950; control promoter light, run 1, well b = 35260; uninduced reporter light, run 1, well a = 1788; inactive.
With knock-down of Gr21a [DRSC00366], the screen gave induced reporter light, run 1, well a = 1.23e5; induced reporter light, run 1, well b = 1.18e5; control promoter light, run 1, well a = 1.16e5; control promoter light, run 1, well b = 68710; uninduced reporter light, run 1, well a = 9520; inactive.
With knock-down of clu [DRSC07181], the screen gave induced reporter light, run 1, well a = 1.45e5; induced reporter light, run 1, well b = 1.35e5; control promoter light, run 1, well a = 2.37e5; control promoter light, run 1, well b = 2.42e5; uninduced reporter light, run 1, well a = 12600; inactive.
Against Rabex-5 [DRSC08628], the values are induced reporter light, run 1, well a = 98730; induced reporter light, run 1, well b = 1.15e5; control promoter light, run 1, well a = 1.95e5; control promoter light, run 1, well b = 2.25e5; uninduced reporter light, run 1, well a = 8865; inactive.
Silencing of Rox8 [DRSC16829] came out at: induced reporter light, run 1, well a = 84850; induced reporter light, run 1, well b = 85420; control promoter light, run 1, well a = 70495; control promoter light, run 1, well b = 81085; uninduced reporter light, run 1, well a = 6890; inactive.
After knock-down of Sec63 [DRSC11002], the record shows induced reporter light, run 1, well a = 2.50e5; induced reporter light, run 1, well b = 2.33e5; control promoter light, run 1, well a = 3.26e5; control promoter light, run 1, well b = 1.72e5; uninduced reporter light, run 1, well a = 14105; inactive.
For CG11050 [DRSC02125] the deposit lists induced reporter light, run 1, well a = 88305; induced reporter light, run 1, well b = 89610; control promoter light, run 1, well a = 66710; control promoter light, run 1, well b = 63410; uninduced reporter light, run 1, well a = 13185; inactive.
Obp19a [DRSC20487] gave induced reporter light, run 1, well a = 98195; induced reporter light, run 1, well b = 1.02e5; control promoter light, run 1, well a = 88180; control promoter light, run 1, well b = 1.24e5; uninduced reporter light, run 1, well a = 11790; inactive.
For CG9826 [DRSC04570], the values are induced reporter light, run 1, well a = 2.25e5; induced reporter light, run 1, well b = 2.04e5; control promoter light, run 1, well a = 2.10e5; control promoter light, run 1, well b = 2.03e5; uninduced reporter light, run 1, well a = 17955; inactive.
For Mrp5 [DRSC15597] the deposit lists induced reporter light, run 1, well a = 1.70e5; induced reporter light, run 1, well b = 1.48e5; control promoter light, run 1, well a = 1.65e5; control promoter light, run 1, well b = 1.81e5; uninduced reporter light, run 1, well a = 10695; inactive.
Mrp5 [DRSC15598] gave induced reporter light, run 1, well a = 1.61e5; induced reporter light, run 1, well b = 1.77e5; control promoter light, run 1, well a = 1.56e5; control promoter light, run 1, well b = 1.78e5; uninduced reporter light, run 1, well a = 11995; inactive.
